The text below walks through data of the DeepSol protein solubility set.

The data set is described as follows: soluble on expression in E. coli; label from the status in PepcDB or PDB records.

In the case of “MAEKNDVAEQPADKPVKATKVKGTVKWFNVKNGYGFINRTDTNEDIFVHQTAIINNNPNKYLRSLGDNEEVMFDIVEGSKGLEAASVTGPDGGPVQGSKYAADRDAENAARGRGGRGRGRRGGRGGIRHDSGSRDAEEGGAPRGGGRGGSRRGGGGRGGGRTNSGGEETARDTDGGERGGRGGGRRGGRGRGGRGRGGRGGQGGQSEA”, the “soluble on expression in E. coli” value is given as “soluble”.

In the case of “MSSYPSSGRRRPITRSEAEERALDKISREAEARMKLKRETREQARQGRYQLLEKKVEEDAEAYRHDTASTSNTNGVSSQSNQTQEQLHDKVIELQDRVQQVMFLYSQLDNEKSTLLYEVDLLKDELEEKDASLNLSSRECRDLTSEVKALKRTIDALHASQQQLKQEISQRDQLIQENGLCLVEEDPDDEGSESTNNASGEIRSGPYLFKRETIRLVDRVVPGAASLDDKIQKLVDTNKKMRKDYEELEQTIYTQRHARNARDSANVIPNQGVDDVNKDAAKQLAEMKLKMQDLERENTNQQGNVIRMEGQMKRYKSNADVAEKELDELKTQMRQTKKELRDKENALDEQKETNKHLQSRLEKMRMQRTGRPL”, the “soluble on expression in E. coli” value was “not soluble”.

In the case of “MGHHHHHHSHMENFKGLQKSLYIWTDSADLDKRVEQLKAATGGDVALENVHRLSFSSYANSSFDLIVIECAQLTDSYVKLLHMLKPSGKLHLVSYIGPAASLLQEIKLSGFINCREDSPDALTAEKPGYETGSSARLSFAKKNASAVNVWKISGDDEELIDEEELLDEEDKQKPDPAGLRVCSTTGKRKACKNCSCGLAEELETEKQSQKATENAKSSCGNCYLGDAFRCSTCPYLGMPAFKPGEKVQLADNLLKSDI”, the “soluble on expression in E. coli” value was “soluble”.

As to “MAKIPVTVLSGYLGSGKTTLLNHILQNREGRRIAVIVNDMSEVNIDKDLVADGGGLSRTDEKLVELSNGCICCTLRDDLLKEVERLVKKGGIDQIVIESTGISEPVPVAQTFSYIDDELGIDLTAICRLDTMVTVVDANRFVHDINSEDLLMDRDQSVDETDERSIADLLIDQVEFCDVLIINKIDLISEEELAKLEKVLSALQPIAKIIKTTNSEVDLKEVLNTQRFDFEKASESAGWIKELESGGHASHTPETEEYGISSFVYKRRLPFHAKRFNDWLESMSNNVVRSKGIVWLAQYNHVACLLSQAGSSCNIHPVTYWVASMSEAQQTQILAERQDVAAEWDPEYGDRHTQFVIIGTELDEEKLTKELDACLVNAQEIDADWQQFEDPYQWQIRPAR”, the “soluble on expression in E. coli” value is “not soluble”.
